Data published in paper PMC4105463.
No constants are given. Whether binding was seen depends on the method and setting. Binding seen in cells or lysates may run through a third protein. Sequences can lack the tags named with a protein.

Target: T1, stefin B wild type (C3E31) fused to a half of the yellow fluorescent protein (human) (UniProt P04080)
T1 sequence: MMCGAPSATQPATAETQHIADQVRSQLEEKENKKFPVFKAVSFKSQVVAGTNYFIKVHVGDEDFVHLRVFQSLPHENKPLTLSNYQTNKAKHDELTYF
Assay: split reporter; split YFP halves (NYFP, CYFP) on the C-terminus of each protein, co-transfected in HEK293 cells, live adherent cells imaged by confocal microscopy (488 nm)

SUMO protein fused to the C-terminal half of the yellow fluorescent protein
binding: no binding
